Experimental data from US20210163598A1 (BEIJING PROTEOME RESEARCH CENTER, published 2021).
These are yes or no findings as the source states them, for the method shown. Some entries that bind do so weakly or less than the wild type.

By UniProt entry, the sequences of proteins in these tests, tags left out. Where a name states a change or a piece, a line headed by the entry shows the natural chain unless it says otherwise.
UniProt O00478: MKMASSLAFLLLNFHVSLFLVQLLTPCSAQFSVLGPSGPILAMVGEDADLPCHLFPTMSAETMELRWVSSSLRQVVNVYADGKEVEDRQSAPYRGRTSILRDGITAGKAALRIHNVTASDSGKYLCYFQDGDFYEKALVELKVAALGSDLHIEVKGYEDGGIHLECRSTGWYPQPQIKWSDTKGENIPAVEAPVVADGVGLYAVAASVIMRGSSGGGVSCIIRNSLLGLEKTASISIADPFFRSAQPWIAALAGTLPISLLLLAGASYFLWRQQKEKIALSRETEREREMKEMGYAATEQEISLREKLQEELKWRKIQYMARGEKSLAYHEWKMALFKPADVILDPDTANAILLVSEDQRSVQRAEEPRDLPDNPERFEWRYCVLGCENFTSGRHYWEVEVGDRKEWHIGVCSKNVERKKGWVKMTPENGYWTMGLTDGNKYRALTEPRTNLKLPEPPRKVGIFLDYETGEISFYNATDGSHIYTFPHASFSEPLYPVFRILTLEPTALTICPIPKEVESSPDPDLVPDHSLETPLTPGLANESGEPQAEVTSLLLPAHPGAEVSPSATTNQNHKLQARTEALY

Legend:
[1] = target: BTN3A3 (Butyrophilin subfamily 3 member A3) expressed on the cell surface (BT474-BTN3A3; MDA-MB-231) (human) (UniProt O00478); assay: flow cytometric adhesion assay
[2] = target: BTN3A3 (Butyrophilin subfamily 3 member A3) expressed on the cell surface (BT474-BTN3A3; MDA-MB-231) (human) (UniProt O00478); assay: flow cytometric adhesion assay (FIG. 7(b))

B1: mouse LSECtin-Fc protein (Fc fusion, UniProt Q8BNX1 52-294, looked up)
chain: LLSSASSKLRVLLSHQDLLRTNASEQKMTLSSLKDDIGACRNCCSVTKAQLQTTLAEFKDIQAKLMEQESILKELQERVTQDLAKASRDRENIRSELFQALEAVKRQNSSCEQCPPSWLPFQGSCYYFSETQATWDTAQSYCGGQGAHLVIVRGLNEQGFLSQHTRGRGYWLGLRAVRHLNKIQGYRWVDGASLNFSHWNSGEPNDSRGHEDCIMMLHSGLWNDAPCTNERDGWICEKRSSCY
notes: also called murine LSECtin-Fc; murine LSECtin; not shown: Fc part
binding [1]: binds
binding [2]: binds
